In PubChem BioAssay AID292 (DTP/NCI, 2004):
The list shows only some results of the screen, not a fair sample: it gathers tests that were run many times, whatever their T/C, doses with no T/C, and many T/C values between a quarter and a half above the control. Further doses and runs are listed elsewhere. T/C: endpoint of the treated group in % of that of the vehicle group. Some doses have a count of surviving animals in place of a T/C: the source holds a T/C of zero for them, seemingly a mark for toxic or unscored doses. Some doses without a T/C left all or most animals alive at the check, yet need not have been tolerated: survival well below the control is almost never listed, so the zero probably covers shortened survival too. Survivors were counted at the toxicity check, usually on the fifth day, unless a day is given; later deaths do not show. Schedules are NCI's codes, read here as Q, the interval in days (D) or hours (H), X, the number of doses. Some entries hold several experiments; the values are given in rising order. Where survival is the endpoint, this PubChem deposit counts one and a half times the control or more as active, and values a quarter to a half above the control carry no call in these data; other NCI protocols may use other cut-offs. Some T/C values are followed by the survivors on the day toxicity was checked, most often the fifth; without a count, all were alive then. Brackets with × say how often a value occurs here.

Test system: B6C3F1 mice, ip Sarcoma M5076, median survival T/C
Assay: NCI In Vivo Anticancer Drug Screen. Data for tumor model Sarcoma M5076 (intraperitoneal) in B6C3F1 mice
Conditions: T/C endpoint: median survival time, higher T/C = longer survival
Procedure, shortened: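 Mice carrying the transplanted tumour received compound treatment. Survival was recorded, and each value is the treated-group measurement divided by that of the vehicle-dosed control group.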

[1] = dose: 100.0 mg/kg/injection, schedule: Q04DX004 (ip), vehicle: saline with Tween-80
[2] = dose: 50.0 mg/kg/injection, schedule: Q04DX004 (ip), vehicle: water
[3] = dose: 25.0 mg/kg/injection, schedule: Q04DX004 (ip), vehicle: Klucel (hydroxypropylcellulose) (HPC)
[4] = dose: 50.0 mg/kg/injection, schedule: Q04DX004 (ip), vehicle: Klucel (hydroxypropylcellulose) (HPC)
[5] = dose: 400.0 mg/kg/injection, schedule: Q04DX004 (ip), vehicle: saline with Tween-80
[6] = dose: 100.0 mg/kg/injection, schedule: Q04DX004 (ip), vehicle: Klucel (hydroxypropylcellulose) (HPC)
[7] = dose: 200.0 mg/kg/injection, schedule: Q04DX004 (ip), vehicle: Klucel (hydroxypropylcellulose) (HPC)
[8] = dose: 400.0 mg/kg/injection, schedule: Q04DX004 (ip), vehicle: Klucel (hydroxypropylcellulose) (HPC)
[9] = dose: 15.0 mg/kg/injection, schedule: Q04DX004 (ip), vehicle: Klucel (hydroxypropylcellulose) (HPC)

SMILES: O=C1C=CC(=CC=C2C=CN(CCCCCCCCCCCO)C=C2)C=C1
- survivor count [1]: 5 of 10 on day 14

SMILES: Nc1ccn(C2CC(N)C(CO)O2)c(=O)n1 (centres undefined)
- T/C [2]: 125 % of control
- T/C (dose: 100.0 mg/kg/injection, schedule: Q04DX004 (ip), vehicle: water): 129 % of control
- T/C (dose: 200.0 mg/kg/injection, schedule: Q04DX004 (ip), vehicle: water): 129, 140, 147 % of control
- T/C (dose: 400.0 mg/kg/injection, schedule: Q04DX004 (ip), vehicle: water): 140 and 144 % of control (2×)
- T/C (dose: 800.0 mg/kg/injection, schedule: Q04DX004 (ip), vehicle: water): 140 % of control [9 of 10 alive on day 14]

SMILES: C1CCC(NC2CCCCC2)CC1
- survivor count (dose: 600.0 mg/kg/injection, schedule: Q04DX004 (ip), vehicle: saline): 6 of 10 on day 14
- survivor count (dose: 1200.0 mg/kg/injection, schedule: Q04DX004 (ip), vehicle: saline): 0 of 10 on day 14

SMILES: COc1c2c(c(O)c3c4c(c(C)cc13)C1OC3(C(OC)OC5CC(C)(O)C(OC6CC(C)(O)C(O)C(C)O6)C(C)O5)OC1C(OC)(O4)C31CO1)C(=O)C(O)CC2OC1CC(C)(O)C(OC(C)=O)C(C)O1 (centres undefined)
- T/C (dose: 0.06 mg/kg/injection, schedule: Q04DX004 (ip), vehicle: saline): 128 and 131 % of control
- T/C (dose: 0.12 mg/kg/injection, schedule: Q04DX004 (ip), vehicle: saline): 125 and 149 % of control
- survivor count (dose: 0.25 mg/kg/injection, schedule: Q04DX004 (ip), vehicle: saline): 0 of 10 on day 14 and 9 of 10 on day 14
- survivor count (dose: 0.5 mg/kg/injection, schedule: Q04DX004 (ip), vehicle: saline): 0 of 10 on day 14 and 1 of 10 on day 14
- survivor count (dose: 1.0 mg/kg/injection, schedule: Q04DX004 (ip), vehicle: saline): 0 of 10 on day 14
- T/C (dose: 100.0 micrograms/kg/injection, schedule: Q04DX004 (ip), vehicle: saline): 129 % of control [9 of 10 alive on day 14]
- T/C (dose: 167.0 micrograms/kg/injection, schedule: Q04DX004 (ip), vehicle: saline): 131 % of control
- survivor count (dose: 278.0 micrograms/kg/injection, schedule: Q04DX004 (ip), vehicle: saline): 8 of 10 on day 14
- survivor count (dose: 463.0 micrograms/kg/injection, schedule: Q04DX004 (ip), vehicle: saline): 0 of 10 on day 14

SMILES: CN=C(NC)c1ccc(NC(=O)/C=C\c2ccc(/C=C/C(=O)Nc3ccc(C(=NC)NC)cc3)cc2)cc1
- T/C (dose: 6.25 mg/kg/injection, schedule: Q04DX004 (ip), vehicle: Klucel (hydroxypropylcellulose) (HPC)): 135 % of control
- T/C (dose: 12.5 mg/kg/injection, schedule: Q04DX004 (ip), vehicle: Klucel (hydroxypropylcellulose) (HPC)): 131 % of control [9 of 10 alive on day 14]
- survivor count [3]: 0 of 10 on day 14
- survivor count (dose: 28.95 mg/kg/injection, schedule: Q04DX004 (ip), vehicle: Klucel (hydroxypropylcellulose) (HPC)): 9 of 10 on day 14
- survivor count [4]: 0 of 10 on day 14

SMILES: COc1ccc(C(C)c2cc3c(cc2OC)OCO3)cc1 (centres undefined)
- T/C [1]: 129 % of control
- survivor count [5]: 0 of 10 on day 9

SMILES: Cc1nc2ccccc2c(N)c1-c1cc(C)c2c(C)nc3ccccc3c2n1
- survivor count [4]: 10 of 10 on day 14
- survivor count [6]: 10 of 10 on day 14
- survivor count [7]: 10 of 10 on day 14
- survivor count [8]: 10 of 10 on day 14

SMILES: CC(/C=C/C1OC(=O)C=CC1C)=C\C(C)C/C=C/C(C)=C/C(CO)C(=O)C(C)C(O)C(C)C/C(C)=C/C(=O)O (centres undefined)
- T/C (dose: 125.0 micrograms/kg/injection, schedule: Q04DX004 (ip), vehicle: other): 132 % of control
- T/C (dose: 250.0 micrograms/kg/injection, schedule: Q04DX004 (ip), vehicle: other): 129 % of control

SMILES: Nc1nc(N)c2cc(C=O)ccc2n1
- survivor count (dose: 25.0 mg/kg/injection, schedule: Q04DX004 (ip), vehicle: water): 5 of 10 on day 14 and 10 of 10 on day 14
- survivor count [2]: 0 of 10 on day 14

SMILES: O=C(Oc1ccccc1)c1cc(O)c(O)c(O)c1
- survivor count [5]: 5 of 10 on day 14

SMILES: COc1c(C=O)c2c(c(OC)c1OC)-c1ccc(OC)c(=O)cc1[C@@H](NC(C)=O)CC2
- T/C (dose: 5.4 mg/kg/injection, schedule: Q04DX004 (ip), vehicle: Klucel (hydroxypropylcellulose) (HPC)): 141 % of control
- T/C (dose: 9.0 mg/kg/injection, schedule: Q04DX004 (ip), vehicle: Klucel (hydroxypropylcellulose) (HPC)): 149 % of control [9 of 10 alive on day 14]
- T/C [9]: 136 % of control
- survivor count [9]: 3 of 10 on day 14
- survivor count [3]: 4 of 10 on day 14
- T/C (dose: 30.0 mg/kg/injection, schedule: Q04DX004 (ip), vehicle: Klucel (hydroxypropylcellulose) (HPC)): 126 % of control
- survivor count (dose: 41.7 mg/kg/injection, schedule: Q04DX004 (ip), vehicle: Klucel (hydroxypropylcellulose) (HPC)): 5 of 10 on day 14
- survivor count (dose: 60.0 mg/kg/injection, schedule: Q04DX004 (ip), vehicle: Klucel (hydroxypropylcellulose) (HPC)): 8 of 10 on day 14

SMILES: Cc1ccc2c(c1)C1(C)OC(C=CC1=O)O2 (centres undefined)
- survivor count [6]: 0 of 10 on day 14
- survivor count [7]: 0 of 10 on day 14
- survivor count [8]: 0 of 10 on day 14

SMILES: COc1cc(C(=O)c2cc3c(cc2C)OCO3)cc(OC)c1OC
- T/C (dose: 300.0 mg/kg/injection, schedule: Q04DX004 (ip), vehicle: Klucel (hydroxypropylcellulose) (HPC)): 126 % of control [9 of 10 alive on day 14]
- survivor count (dose: 600.0 mg/kg/injection, schedule: Q04DX004 (ip), vehicle: Klucel (hydroxypropylcellulose) (HPC)): 2 of 10 on day 14 and 10 of 10 on day 14
- survivor count (dose: 1200.0 mg/kg/injection, schedule: Q04DX004 (ip), vehicle: Klucel (hydroxypropylcellulose) (HPC)): 0 of 10 on day 14

SMILES: Cc1c2c(ccc3ccccc32)c[n+]2ccccc12
- survivor count (dose: 12.0 mg/kg/injection, schedule: Q04DX004 (ip), vehicle: saline with Tween-80): 3 of 10 on day 14 and 6 of 10 on day 14
- survivor count (dose: 24.0 mg/kg/injection, schedule: Q04DX004 (ip), vehicle: saline with Tween-80): 0 of 10 on day 14 and 5 of 10 on day 14

SMILES: COc1ccc(-c2c(N3CCOCC3)oc3cc(N4CCOCC4)c(O)cc23)cc1
- survivor count (dose: 800.0 mg/kg/injection, schedule: Q04DX004 (ip), vehicle: saline with Tween-80): 10 of 10 on day 14

SMILES: CCC(=O)[O][Bi]([c]1ccccc1)[c]1ccccc1
- survivor count (dose: 48.0 mg/kg/injection, schedule: Q04DX004 (ip), vehicle: Klucel (hydroxypropylcellulose) (HPC)): 0 of 10 on day 14
- survivor count [4]: 10 of 10 on day 14
- survivor count [6]: 1 of 10 on day 14
- survivor count [7]: 0 of 10 on day 14
- survivor count [8]: 0 of 10 on day 14
- survivor count (dose: 800.0 mg/kg/injection, schedule: Q04DX004 (ip), vehicle: Klucel (hydroxypropylcellulose) (HPC)): 0 of 10 on day 14

SMILES: CN(C)N=Nc1ccc(C(N)=O)cc1
- T/C (dose: 25.0 mg/kg/injection, schedule: Q04DX004 (ip), vehicle: saline with Tween-80): 132 % of control
- T/C (dose: 50.0 mg/kg/injection, schedule: Q04DX004 (ip), vehicle: saline with Tween-80): 125, 140, 146 % of control
- T/C [1]: 139 and 149 % of control
- T/C (dose: 200.0 mg/kg/injection, schedule: Q04DX004 (ip), vehicle: saline with Tween-80): 140 and 149 % of control [8 of 10 alive on day 14]
- survivor count [5]: 0 of 10 on day 14 and 7 of 10 on day 14

SMILES: CCC/C=C/C=C/C(=O)OC1/C(=C/C(=O)OC)CC2CC(C(C)O)OC(=O)CC(O)CC3CC(OC(C)=O)C(C)(C)C(O)(CC4C/C(=C/C(=O)OC)CC(/C=C/C(C)(C)C1(O)O2)O4)O3 (centres undefined)
- T/C (dose: 160.0 micrograms/kg/injection, schedule: Q01DX009 (ip), vehicle: saline): 126 % of control

SMILES: C/C(=N\NC(=S)N1CC2CCC(CC2)C1)c1cccc(C)n1
- survivor count (dose: 6.25 mg/kg/injection, schedule: Q04DX004 (ip), vehicle: saline with Tween-80): 5 of 10 on day 14
- survivor count [1]: 1 of 10 on day 14, 3 of 10 on day 14, 5 of 10 on day 14
